These are yes or no findings as the source states them, for the method shown. Binding seen in cells or lysates may run through a third protein. Some results given as binding are weak or reduced against the parent protein; the word gives no strength.
Molecular target: nucleolin (human (endogenous in MKN-45)) (UniProt P19338)
Test: co-IP; anti-nucleolin antibody coupled by EDC to magnetic particles, incubated with MKN-45 cell lysate overnight at 4 °C, washed twice with 1x PBS, Western blot; bare magnetic particles as control

By UniProt entry, the sequences of proteins in these tests, tags left out. Residues count along the entry.
UniProt P19338: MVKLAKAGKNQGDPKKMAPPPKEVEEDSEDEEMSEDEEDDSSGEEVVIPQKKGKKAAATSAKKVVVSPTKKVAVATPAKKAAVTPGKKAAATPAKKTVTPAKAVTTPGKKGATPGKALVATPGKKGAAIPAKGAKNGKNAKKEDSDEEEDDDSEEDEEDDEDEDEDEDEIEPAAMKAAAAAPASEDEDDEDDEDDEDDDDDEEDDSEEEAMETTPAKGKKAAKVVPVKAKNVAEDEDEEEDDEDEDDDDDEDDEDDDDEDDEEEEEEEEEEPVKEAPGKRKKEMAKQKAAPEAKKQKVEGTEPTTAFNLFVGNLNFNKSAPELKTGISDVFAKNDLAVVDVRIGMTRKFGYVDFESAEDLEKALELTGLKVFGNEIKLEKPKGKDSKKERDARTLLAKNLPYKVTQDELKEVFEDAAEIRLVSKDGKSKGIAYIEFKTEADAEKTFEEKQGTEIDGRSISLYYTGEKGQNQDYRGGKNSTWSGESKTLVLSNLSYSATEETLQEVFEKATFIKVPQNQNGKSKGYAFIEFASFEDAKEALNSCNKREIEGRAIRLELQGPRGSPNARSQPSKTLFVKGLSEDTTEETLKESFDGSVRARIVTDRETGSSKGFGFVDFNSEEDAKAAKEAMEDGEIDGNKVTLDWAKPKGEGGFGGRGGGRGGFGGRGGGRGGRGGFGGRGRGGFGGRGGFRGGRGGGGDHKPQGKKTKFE
UniProt P08581, residues 25-1390: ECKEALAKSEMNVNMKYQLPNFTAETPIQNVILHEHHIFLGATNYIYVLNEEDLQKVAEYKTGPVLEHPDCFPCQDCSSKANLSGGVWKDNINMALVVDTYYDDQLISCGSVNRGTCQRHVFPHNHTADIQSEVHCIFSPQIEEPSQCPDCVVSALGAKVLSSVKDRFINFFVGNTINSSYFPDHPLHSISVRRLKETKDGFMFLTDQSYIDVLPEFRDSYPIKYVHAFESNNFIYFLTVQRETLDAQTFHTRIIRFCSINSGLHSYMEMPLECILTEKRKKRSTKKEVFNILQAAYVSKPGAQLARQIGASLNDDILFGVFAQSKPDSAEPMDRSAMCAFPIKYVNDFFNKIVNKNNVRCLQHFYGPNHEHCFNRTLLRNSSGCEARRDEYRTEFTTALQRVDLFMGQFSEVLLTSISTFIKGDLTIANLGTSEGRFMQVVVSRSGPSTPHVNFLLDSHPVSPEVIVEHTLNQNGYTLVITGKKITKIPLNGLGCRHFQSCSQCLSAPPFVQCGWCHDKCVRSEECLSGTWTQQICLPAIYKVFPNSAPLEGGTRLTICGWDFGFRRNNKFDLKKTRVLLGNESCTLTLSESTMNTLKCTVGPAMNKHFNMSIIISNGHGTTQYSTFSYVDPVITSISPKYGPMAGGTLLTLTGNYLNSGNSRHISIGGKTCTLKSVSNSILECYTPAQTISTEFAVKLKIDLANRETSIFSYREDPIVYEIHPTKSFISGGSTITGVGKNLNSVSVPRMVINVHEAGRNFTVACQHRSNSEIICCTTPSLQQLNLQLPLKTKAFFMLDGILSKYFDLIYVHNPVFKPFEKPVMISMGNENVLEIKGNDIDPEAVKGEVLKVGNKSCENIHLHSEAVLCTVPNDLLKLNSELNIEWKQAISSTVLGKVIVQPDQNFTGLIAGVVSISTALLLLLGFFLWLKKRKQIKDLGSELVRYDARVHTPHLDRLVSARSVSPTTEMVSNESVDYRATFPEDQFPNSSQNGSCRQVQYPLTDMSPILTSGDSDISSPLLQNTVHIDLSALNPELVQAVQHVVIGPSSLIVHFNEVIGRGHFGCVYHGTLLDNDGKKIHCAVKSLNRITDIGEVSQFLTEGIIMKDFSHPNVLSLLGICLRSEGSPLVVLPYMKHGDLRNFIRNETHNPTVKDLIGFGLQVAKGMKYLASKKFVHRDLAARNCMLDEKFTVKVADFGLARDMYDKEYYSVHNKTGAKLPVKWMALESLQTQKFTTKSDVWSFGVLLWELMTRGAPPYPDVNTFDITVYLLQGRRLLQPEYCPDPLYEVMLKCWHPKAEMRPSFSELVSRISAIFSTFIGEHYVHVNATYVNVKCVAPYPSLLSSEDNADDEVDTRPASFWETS

For “c-Met (from UniProt P08581 25-1390) (receptor)”, the binding was “binds”.

Source: publication PMC7408393
